# Library screening results

From ChEMBL document CHEMBL3988442, “University of Dundee, Small-Polar-MMV Screening Library” (2021).

Mtb growth Cornell: 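Whole-cell assay for inhibitors of Mycobacterium tuberculosis growth, labelled Cornell in the record; the read-out is not stated. The concentration is filed as 10 mM, unlikely as a test dose, so the dose is not known. The record gives no direction; compounds strong in two other growth screens of this library score well above the rest, so higher reads as stronger inhibition. Of about 53,000 compounds tested this way, about 900 (1.7%) reached 50% or more in at least one test.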
Mtb heat-shock: 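Assay on Mycobacterium tuberculosis, filed only as a heat shock assay from Cornell; the read-out is not stated. The concentration is filed as 10 mM, unlikely as a test dose, so the dose is not known. Higher reads as stronger inhibition (inferred: compounds with an IC50 in retests scored well above the rest). Of about 69,000 compounds tested this way, about 930 (1.4%) reached 50% or more in at least one test.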

The filed quantity is “Percent Effect” (%).
How 0% and 100% were set is not recorded. Most values in the screen are low, and negative values occur.
Compounds were drawn at random from those tested, without regard to their results.
A dash means the value is not listed here; it may have been measured.

* COCC(=O)N1CCC2(CC1)CC(OC)CO2 (stereo not drawn) | Mtb growth Cornell: 30.94%; Mtb heat-shock: -8.202%
* CC(C)(C)c1coc([C@@H]2COCCN2Cc2c[nH]c3ccccc23)n1 | Mtb growth Cornell: 26.77%; Mtb heat-shock: 25.07%
* CS(=O)(=O)CCSCc1cccc2cccnc12 | Mtb growth Cornell: 17.13%; Mtb heat-shock: -0.8346%
* CCCS(=O)(=O)N1CCN(c2cc(-n3ccnc3)nc(C)n2)CC1 | Mtb growth Cornell: 1.554%; Mtb heat-shock: -15.41%
* CC(C)CC(=O)Nc1cc(C(=O)N(C)C(C)C)ccc1Cl | Mtb growth Cornell: 16.99%; Mtb heat-shock: 2.679%
* Cc1cnn(CCNCc2ccccc2OCc2cccnc2)c1 | Mtb heat-shock: 12.49%
* Cc1nc(-c2cccc(C#N)c2)nn1CC1(O)CCCCC1 | Mtb heat-shock: -5.22%
* CC(C)Cc1nc(CO)n(-c2ccc3c(c2)OCCO3)n1 | Mtb heat-shock: -2.485%
* COc1c(C)cnc(CSc2nnc(N3CCCC3)s2)c1C | Mtb growth Cornell: -40.16%; Mtb heat-shock: -17.9%
* N[C@H]1CN(C(=O)CCC(F)(F)F)C[C@@H]1c1ccccc1 | Mtb growth Cornell: 37.55%; Mtb heat-shock: -18.3%
* Cc1cccc(CN(Cc2cccnc2)C2CC(C)(C)NC(C)(C)C2)n1.O=C(O)CC(O)(CC(=O)O)C(=O)O | Mtb heat-shock: -19.11%
* CC(=O)N1Cc2ccccc2CC2(CCCCN2C)C1 (stereo not drawn) | Mtb heat-shock: -17.04%
* O=C(O)C(F)(F)F.[H][C@]12CCN(C(=O)c3ccncc3F)[C@@]1([H])CC[C@H](COCC(C)C)O2 | Mtb heat-shock: -6.595%
* CCS(=O)(=O)c1ccc2oc([C@H]3CCN(Cc4ccccc4)C3)nc2c1 | Mtb growth Cornell: 0.1974%; Mtb heat-shock: -16.85%
* O=C1CSC(c2ccc(O)c(Cl)c2)c2c(n(C3CCOCC3)[nH]c2=O)N1 (stereo not drawn) | Mtb heat-shock: -11.98%
* CN(C)C(C(=O)N1CCC(c2ncc[nH]2)CC1)c1ccc2c(c1)OCO2 (stereo not drawn) | Mtb growth Cornell: 0.703%; Mtb heat-shock: -17.86%
* NCC1CN(Cc2cn(CCC(N)=O)c3ccccc23)CCO1 (stereo not drawn) | Mtb growth Cornell: 7.948%; Mtb heat-shock: -26.84%
* COc1ccccc1CNC(=O)C(C)n1cc2c(n1)c(C)nn2C (stereo not drawn) | Mtb heat-shock: -9.585%
* Cc1ccc(-c2nnc(CN3CCCC(Cn4cncn4)C3)o2)cc1 (stereo not drawn) | Mtb heat-shock: 13.62%
* CCOCCCNC(=O)NCc1c(C)nn(C)c1C | Mtb heat-shock: -21.14%
* CC1=C(CCN2CCCC(O)C2)C(C)(C)CCC1 (stereo not drawn) | Mtb growth Cornell: 24.26%; Mtb heat-shock: -23.44%
* CSCc1cccc(S(=O)(=O)NCCO)c1 | Mtb growth Cornell: 0.946%; Mtb heat-shock: 8.61%
* O=C(c1cnco1)N1CCC(Cc2cccc3ncccc23)CC1 | Mtb growth Cornell: -21.16%; Mtb heat-shock: -17.61%
* COC1CCN(C(=O)CC(C)(C)C)CC(=O)N(C)c2ccccc21 (stereo not drawn) | Mtb growth Cornell: 2.903%; Mtb heat-shock: 14.01%
* Cc1cnn(CC2CCCN2CCCS(=O)(=O)N(C)C)c1 (stereo not drawn) | Mtb growth Cornell: -13.43%; Mtb heat-shock: -8.14%
* CCS(=O)(=O)N1CCC(c2nnc(C3CC3)o2)CC1 | Mtb growth Cornell: 5.25%; Mtb heat-shock: 7.282%
* O=C(c1cccc2c1OCCO2)N1CCCC1c1noc(C2CC2)n1 (stereo not drawn) | Mtb heat-shock: -3.912%
* CC(=O)N1CC[C@H](c2nc3cc(C)ccc3o2)C1 | Mtb growth Cornell: -1.165%; Mtb heat-shock: 3.524%
* CCc1cc(O)n2nc(C3CCN(C(=O)c4cccnc4)CC3)cc2n1 | Mtb growth Cornell: -8.855%; Mtb heat-shock: -17.63%
* CN(C)C(=O)N1CCN(C(=O)c2ccn3cncc3c2)CC1 | Mtb growth Cornell: -19.63%; Mtb heat-shock: -5.53%
* Cn1cc(C(=O)NCc2ccc(N3CCCC3)nc2)ccc1=O | Mtb growth Cornell: 12.22%; Mtb heat-shock: -11.81%
* NC(=O)c1cccc(CC2CCN(C(=O)CO)C2)c1 (stereo not drawn) | Mtb growth Cornell: -52.74%; Mtb heat-shock: 5.309%
* COc1ccc(CNC(=O)NCC(O)(c2cccs2)C2CC2)cc1 (stereo not drawn) | Mtb growth Cornell: 4.934%; Mtb heat-shock: 16.17%
* CS(=O)(=O)NCC1CCCN(C(=O)COCC2CC2)C1 (stereo not drawn) | Mtb heat-shock: 5.759%
* Cc1ccccc1-c1cc(C(=O)NCCN2CCCS2(=O)=O)[nH]n1 | Mtb growth Cornell: 14.14%; Mtb heat-shock: 17.91%
* COC(=O)N1CCCCC1C(=O)N1CCN(c2cccnc2)CC1 (stereo not drawn) | Mtb growth Cornell: 4.284%; Mtb heat-shock: -1.311%
* OCC1COCCN(Cc2cc(C3CCCCC3)no2)C1 (stereo not drawn) | Mtb growth Cornell: 11.55%; Mtb heat-shock: -3.309%
* CN1CCCC(C(=O)N2CCC(Oc3ccc(C#N)cn3)CC2)C1 (stereo not drawn) | Mtb growth Cornell: 15.26%; Mtb heat-shock: 2.562%
* Cc1ccccc1C1(CNCc2cnc(N3CCOCC3)nc2)CC1 | Mtb growth Cornell: 21.5%; Mtb heat-shock: 13.59%

4 of the entries, repeated:

| Compound | Mtb growth Cornell | Mtb heat-shock |
|---|---|---|
| `Cc1ccccc1C1(CNCc2cnc(N3CCOCC3)nc2)CC1` | 21.5 | 13.59 |
| `CC(C)CC(=O)Nc1cc(C(=O)N(C)C(C)C)ccc1Cl` | 16.99 | 2.679 |
| `COc1ccc(CNC(=O)NCC(O)(c2cccs2)C2CC2)cc1` (stereo not drawn) | 4.934 | 16.17 |
| `O=C(O)C(F)(F)F.[H][C@]12CCN(C(=O)c3ccncc3F)[C@@]1([H])CC[C@H](COCC(C)C)O2` | - | -6.595 |